Data: publication PMC9774693
Read-outs that look alike come from different tables or passages of the source. These are yes or no findings as the source states them, for the method shown. Binding seen in cells or lysates may run through a third protein. Here binding means that the protein was enriched with, or labelled near, the bait; the list need not be complete.

The chains behind the UniProt entries cited, without tags or fusion partners. Residues count along the entry.
UniProt Q96EB6: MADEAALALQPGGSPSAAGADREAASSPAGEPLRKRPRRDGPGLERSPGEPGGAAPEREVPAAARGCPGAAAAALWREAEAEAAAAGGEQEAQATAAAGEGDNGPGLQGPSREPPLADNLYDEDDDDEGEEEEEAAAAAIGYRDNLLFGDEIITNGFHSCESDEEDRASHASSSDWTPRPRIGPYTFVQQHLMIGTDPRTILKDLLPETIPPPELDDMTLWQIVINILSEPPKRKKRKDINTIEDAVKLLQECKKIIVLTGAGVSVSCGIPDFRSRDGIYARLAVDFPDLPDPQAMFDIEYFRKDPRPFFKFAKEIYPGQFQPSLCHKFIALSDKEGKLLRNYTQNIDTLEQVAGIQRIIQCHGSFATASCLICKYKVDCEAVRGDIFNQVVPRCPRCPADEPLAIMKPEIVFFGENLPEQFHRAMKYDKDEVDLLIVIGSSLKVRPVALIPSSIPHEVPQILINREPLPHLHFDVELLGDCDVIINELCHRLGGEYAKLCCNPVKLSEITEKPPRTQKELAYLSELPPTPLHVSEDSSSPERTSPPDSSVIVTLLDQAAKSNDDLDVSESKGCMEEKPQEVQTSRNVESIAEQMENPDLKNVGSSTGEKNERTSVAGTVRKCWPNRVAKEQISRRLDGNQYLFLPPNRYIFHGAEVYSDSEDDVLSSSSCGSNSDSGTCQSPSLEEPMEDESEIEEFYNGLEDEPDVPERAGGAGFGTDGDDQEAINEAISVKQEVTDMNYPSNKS
UniProt Q8N5F7: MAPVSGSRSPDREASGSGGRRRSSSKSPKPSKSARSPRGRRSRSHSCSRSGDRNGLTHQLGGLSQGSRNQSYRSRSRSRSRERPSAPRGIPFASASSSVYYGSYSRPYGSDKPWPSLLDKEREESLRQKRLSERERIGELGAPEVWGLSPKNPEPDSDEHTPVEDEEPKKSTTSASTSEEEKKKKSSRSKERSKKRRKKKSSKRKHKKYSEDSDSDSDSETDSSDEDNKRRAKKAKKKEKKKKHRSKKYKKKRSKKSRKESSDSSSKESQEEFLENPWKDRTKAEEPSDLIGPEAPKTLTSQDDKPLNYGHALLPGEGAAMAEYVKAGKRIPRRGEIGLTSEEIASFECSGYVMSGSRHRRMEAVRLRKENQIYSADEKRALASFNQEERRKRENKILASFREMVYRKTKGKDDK
UniProt P11021, residues 19-654: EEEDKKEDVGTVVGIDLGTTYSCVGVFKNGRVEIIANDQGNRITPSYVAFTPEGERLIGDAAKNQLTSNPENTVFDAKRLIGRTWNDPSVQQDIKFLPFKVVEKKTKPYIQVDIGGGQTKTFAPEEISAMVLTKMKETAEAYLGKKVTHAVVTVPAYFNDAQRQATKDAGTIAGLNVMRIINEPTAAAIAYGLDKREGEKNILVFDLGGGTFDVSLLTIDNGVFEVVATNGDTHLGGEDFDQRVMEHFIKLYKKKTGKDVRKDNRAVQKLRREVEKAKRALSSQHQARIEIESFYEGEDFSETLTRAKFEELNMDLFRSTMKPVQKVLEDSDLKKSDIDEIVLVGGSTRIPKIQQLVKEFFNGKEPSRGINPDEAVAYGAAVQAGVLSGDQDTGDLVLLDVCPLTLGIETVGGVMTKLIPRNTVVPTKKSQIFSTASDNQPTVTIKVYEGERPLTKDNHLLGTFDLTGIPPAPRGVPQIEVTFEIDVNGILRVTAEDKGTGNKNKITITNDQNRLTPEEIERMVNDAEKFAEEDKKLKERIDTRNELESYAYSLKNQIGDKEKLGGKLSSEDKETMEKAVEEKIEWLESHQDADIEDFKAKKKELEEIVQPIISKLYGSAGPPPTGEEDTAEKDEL
UniProt P08238: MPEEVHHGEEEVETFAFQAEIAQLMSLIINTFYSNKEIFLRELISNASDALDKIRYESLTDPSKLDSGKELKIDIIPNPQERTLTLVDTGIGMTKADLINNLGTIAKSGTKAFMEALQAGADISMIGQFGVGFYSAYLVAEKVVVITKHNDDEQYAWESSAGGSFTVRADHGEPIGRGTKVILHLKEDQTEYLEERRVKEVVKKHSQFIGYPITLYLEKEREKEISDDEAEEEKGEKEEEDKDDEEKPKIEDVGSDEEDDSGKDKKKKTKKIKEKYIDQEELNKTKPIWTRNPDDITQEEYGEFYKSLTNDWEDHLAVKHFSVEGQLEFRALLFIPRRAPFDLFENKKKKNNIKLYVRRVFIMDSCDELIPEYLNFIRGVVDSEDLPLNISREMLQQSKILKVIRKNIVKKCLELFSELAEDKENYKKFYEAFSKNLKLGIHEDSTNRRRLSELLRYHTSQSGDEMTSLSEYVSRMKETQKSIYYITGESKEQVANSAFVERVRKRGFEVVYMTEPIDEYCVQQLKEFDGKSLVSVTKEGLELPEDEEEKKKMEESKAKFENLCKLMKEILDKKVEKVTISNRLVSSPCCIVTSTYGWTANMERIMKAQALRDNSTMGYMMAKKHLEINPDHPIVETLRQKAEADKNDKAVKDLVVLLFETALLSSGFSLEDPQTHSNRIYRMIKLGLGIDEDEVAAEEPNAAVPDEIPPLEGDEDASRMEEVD
UniProt P67809: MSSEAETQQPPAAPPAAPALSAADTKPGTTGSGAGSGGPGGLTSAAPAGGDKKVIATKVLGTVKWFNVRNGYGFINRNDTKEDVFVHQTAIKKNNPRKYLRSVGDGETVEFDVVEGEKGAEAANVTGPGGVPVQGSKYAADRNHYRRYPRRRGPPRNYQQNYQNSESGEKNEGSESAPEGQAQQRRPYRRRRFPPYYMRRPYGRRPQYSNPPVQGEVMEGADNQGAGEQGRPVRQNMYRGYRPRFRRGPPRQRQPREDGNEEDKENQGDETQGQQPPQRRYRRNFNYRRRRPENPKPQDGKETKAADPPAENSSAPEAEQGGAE

B1: SLC25A6 (protein, UniProt P12236 1-298)
chain: MTEQAISFAKDFLAGGIAAAISKTAVAPIERVKLLLQVQHASKQIAADKQYKGIVDCIVRIPKEQGVLSFWRGNLANVIRYFPTQALNFAFKDKYKQIFLGGVDKHTQFWRYFAGNLASGGAAGATSLCFVYPLDFARTRLAADVGKSGTEREFRGLGDCLVKITKSDGIRGLYQGFSVSVQGIIIYRAAYFGVYDTAKGMLPDPKNTHIVVSWMIAQTVTAVAGVVSYPFDTVRRRMMMQSGRKGADIMYTGTVDCWRKIFRDEGGKAFFKGAWSNVLRGMGGAFVLVLYDELKKVI

Legend:
[1] = target: SIRT1-APEX2 fusion protein (UniProt Q96EB6); assay: proximity labelling; APEX2: SIRT1-APEX2 in HEK 293T cells; 500 uM biotin-phenol with or without 20 uM resveratrol for 30 min at 37 C, 1 mM H2O2 for 1 min; RIPA lysate, streptavidin magnetic beads, on-bead trypsin digestion, LC-MS/MS, label-free quantitation
[2] = target: SIRT1-APEX2 fusion protein (UniProt Q96EB6); assay: as above; remark: listed apart in the source

Molecule | binding [1] | binding [2]
NF-kappa-B-activating protein (from UniProt Q8N5F7 1-415) | binds | 
HSPA5 (from UniProt P11021 19-654) | binds | 
heat shock protein 90 kDa alpha (cytosolic) class B member 1 (HSP90AB1) (from UniProt P08238 1-724) | binds | 
Ras-GTPase-activating protein SH3 domain-binding protein 1 (G3BP1) (from UniProt Q13283-1 1-466) | binds | 
Y box binding protein 1 (YBX1) (from UniProt P67809 1-324) | binds | 
B1 |  | binds
